In publication PMC10279913:
No constants are given. Whether binding was seen depends on the method and setting. Binding seen in cells or lysates may run through a third protein. Here binding means that the protein was enriched with, or labelled near, the bait; the list need not be complete. Tags and fused reporters may be left off the sequences shown. Values belong to the molecule of their own block, whether it stands above or below them.

The chains behind the UniProt entries cited, without tags or fusion partners. Where a name states a change or a piece, a line headed by the entry shows the natural chain unless it says otherwise. Residues count along the entry.
UniProt Q96MG8: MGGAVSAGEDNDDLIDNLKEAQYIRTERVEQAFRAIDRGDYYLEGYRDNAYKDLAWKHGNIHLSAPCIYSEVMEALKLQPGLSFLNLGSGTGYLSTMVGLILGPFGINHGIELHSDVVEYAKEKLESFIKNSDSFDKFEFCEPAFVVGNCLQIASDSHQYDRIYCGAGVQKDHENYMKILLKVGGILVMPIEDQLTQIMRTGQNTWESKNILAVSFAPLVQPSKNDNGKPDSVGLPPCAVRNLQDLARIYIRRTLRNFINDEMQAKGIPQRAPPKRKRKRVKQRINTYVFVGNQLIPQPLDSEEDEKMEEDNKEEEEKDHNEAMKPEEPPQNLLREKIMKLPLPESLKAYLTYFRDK
UniProt Q13296, residues 19-93: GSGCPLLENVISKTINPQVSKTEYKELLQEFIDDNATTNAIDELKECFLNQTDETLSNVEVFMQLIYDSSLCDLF
UniProt Q16799: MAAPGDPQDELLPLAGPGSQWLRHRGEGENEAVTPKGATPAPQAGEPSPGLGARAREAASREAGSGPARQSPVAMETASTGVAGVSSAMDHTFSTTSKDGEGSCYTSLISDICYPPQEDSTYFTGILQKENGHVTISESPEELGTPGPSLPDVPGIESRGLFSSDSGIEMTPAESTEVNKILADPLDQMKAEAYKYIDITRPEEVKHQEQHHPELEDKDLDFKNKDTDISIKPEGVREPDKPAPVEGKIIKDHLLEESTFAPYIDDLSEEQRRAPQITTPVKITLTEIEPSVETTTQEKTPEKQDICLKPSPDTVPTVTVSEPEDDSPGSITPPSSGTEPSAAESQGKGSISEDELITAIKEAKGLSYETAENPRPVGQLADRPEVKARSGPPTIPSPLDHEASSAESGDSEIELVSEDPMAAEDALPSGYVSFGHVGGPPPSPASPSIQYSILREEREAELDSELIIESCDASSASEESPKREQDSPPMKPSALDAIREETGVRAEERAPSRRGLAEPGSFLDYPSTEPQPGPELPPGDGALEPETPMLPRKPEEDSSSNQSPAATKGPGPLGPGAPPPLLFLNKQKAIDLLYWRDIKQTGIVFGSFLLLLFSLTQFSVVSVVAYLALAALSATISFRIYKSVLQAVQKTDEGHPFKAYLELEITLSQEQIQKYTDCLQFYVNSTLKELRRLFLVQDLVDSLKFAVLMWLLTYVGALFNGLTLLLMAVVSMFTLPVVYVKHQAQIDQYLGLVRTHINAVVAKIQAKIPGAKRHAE
UniProt O95816: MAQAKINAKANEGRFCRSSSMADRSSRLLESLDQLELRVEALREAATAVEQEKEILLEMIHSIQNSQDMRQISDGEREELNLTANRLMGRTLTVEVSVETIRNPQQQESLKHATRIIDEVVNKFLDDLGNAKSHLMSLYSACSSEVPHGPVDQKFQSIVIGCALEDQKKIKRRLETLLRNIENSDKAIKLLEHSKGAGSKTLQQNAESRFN
UniProt Q99436: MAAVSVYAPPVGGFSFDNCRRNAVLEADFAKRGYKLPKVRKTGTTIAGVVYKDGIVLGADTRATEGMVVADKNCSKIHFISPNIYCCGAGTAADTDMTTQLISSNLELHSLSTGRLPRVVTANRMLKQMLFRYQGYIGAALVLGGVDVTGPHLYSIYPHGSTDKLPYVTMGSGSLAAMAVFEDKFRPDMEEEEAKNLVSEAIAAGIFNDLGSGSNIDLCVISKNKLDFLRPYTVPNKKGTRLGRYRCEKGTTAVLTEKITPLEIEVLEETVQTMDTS
UniProt B2RXH8: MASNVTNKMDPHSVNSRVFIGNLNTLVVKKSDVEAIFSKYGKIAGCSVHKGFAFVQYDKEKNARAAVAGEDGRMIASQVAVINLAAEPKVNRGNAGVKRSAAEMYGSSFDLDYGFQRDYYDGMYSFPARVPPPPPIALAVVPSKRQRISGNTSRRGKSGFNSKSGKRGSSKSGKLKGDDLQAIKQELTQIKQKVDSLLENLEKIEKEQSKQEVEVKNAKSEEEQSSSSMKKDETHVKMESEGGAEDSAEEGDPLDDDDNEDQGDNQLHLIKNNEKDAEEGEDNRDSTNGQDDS
UniProt P62316: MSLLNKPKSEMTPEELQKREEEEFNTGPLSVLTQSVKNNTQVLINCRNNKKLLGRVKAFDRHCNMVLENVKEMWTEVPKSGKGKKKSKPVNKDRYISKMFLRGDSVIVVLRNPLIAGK
UniProt P60900: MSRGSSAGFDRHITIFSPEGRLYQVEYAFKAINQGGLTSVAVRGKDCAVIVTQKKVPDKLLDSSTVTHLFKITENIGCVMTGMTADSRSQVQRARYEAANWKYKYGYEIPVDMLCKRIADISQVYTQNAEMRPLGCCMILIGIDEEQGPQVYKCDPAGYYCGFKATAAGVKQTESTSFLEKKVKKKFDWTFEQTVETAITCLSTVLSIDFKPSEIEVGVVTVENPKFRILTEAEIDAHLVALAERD
UniProt P52926: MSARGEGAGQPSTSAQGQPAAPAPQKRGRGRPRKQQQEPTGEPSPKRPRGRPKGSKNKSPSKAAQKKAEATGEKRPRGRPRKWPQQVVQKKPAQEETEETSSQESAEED
UniProt P63167: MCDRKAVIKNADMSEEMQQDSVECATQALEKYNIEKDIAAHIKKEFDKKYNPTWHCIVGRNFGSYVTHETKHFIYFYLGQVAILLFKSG
UniProt P61224: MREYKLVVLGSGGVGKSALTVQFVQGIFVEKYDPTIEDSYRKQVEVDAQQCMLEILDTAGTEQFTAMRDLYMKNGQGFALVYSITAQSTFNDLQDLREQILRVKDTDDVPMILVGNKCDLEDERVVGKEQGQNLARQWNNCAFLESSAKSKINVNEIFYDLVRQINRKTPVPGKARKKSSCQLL
UniProt P11488: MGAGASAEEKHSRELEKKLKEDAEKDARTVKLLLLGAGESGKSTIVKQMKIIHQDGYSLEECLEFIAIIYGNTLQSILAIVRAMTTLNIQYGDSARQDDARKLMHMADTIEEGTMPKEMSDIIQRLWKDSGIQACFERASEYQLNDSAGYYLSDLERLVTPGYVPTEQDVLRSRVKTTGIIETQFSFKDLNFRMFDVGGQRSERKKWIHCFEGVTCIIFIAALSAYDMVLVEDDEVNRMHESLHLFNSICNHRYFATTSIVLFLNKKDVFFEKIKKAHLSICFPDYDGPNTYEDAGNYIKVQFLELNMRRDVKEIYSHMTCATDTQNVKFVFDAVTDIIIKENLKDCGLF
UniProt Q92598: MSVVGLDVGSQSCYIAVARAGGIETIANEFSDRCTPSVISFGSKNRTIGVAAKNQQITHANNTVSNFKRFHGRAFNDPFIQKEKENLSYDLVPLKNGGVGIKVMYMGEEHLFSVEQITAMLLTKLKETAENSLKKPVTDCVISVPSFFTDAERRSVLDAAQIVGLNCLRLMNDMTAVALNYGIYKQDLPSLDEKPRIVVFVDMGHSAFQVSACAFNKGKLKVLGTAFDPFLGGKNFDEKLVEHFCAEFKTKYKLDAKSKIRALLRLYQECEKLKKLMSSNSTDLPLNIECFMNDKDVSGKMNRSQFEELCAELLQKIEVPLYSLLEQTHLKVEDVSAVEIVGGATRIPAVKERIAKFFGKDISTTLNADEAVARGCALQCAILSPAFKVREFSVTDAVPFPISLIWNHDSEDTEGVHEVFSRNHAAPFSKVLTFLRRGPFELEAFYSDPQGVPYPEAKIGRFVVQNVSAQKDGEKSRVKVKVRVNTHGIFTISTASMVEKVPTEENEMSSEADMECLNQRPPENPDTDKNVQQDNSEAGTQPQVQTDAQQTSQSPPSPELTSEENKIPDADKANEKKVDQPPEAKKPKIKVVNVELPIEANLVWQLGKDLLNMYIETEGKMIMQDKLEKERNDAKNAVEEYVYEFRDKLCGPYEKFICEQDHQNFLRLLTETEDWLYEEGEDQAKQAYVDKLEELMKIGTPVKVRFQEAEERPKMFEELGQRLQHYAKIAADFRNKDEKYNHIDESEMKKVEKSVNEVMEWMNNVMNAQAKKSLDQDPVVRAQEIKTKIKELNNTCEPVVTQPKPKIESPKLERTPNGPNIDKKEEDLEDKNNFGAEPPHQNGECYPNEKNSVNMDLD
UniProt O15234: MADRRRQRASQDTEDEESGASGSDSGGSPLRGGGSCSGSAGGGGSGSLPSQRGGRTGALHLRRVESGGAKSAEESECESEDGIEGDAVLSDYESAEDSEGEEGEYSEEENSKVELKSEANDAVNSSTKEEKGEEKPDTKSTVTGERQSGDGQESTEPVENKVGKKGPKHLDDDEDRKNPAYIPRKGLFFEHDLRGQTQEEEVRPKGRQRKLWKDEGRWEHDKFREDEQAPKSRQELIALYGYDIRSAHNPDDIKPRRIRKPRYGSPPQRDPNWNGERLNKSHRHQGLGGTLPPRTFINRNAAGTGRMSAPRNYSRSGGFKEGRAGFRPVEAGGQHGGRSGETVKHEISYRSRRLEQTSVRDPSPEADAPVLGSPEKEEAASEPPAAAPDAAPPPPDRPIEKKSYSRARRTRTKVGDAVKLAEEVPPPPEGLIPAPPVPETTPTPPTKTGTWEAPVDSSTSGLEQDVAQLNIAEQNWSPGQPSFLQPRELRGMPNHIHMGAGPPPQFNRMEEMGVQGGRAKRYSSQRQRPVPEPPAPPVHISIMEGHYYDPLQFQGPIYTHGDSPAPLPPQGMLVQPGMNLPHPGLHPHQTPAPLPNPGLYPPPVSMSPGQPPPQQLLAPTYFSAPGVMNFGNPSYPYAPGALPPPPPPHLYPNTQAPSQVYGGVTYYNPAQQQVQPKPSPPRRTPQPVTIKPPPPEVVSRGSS
UniProt P20618: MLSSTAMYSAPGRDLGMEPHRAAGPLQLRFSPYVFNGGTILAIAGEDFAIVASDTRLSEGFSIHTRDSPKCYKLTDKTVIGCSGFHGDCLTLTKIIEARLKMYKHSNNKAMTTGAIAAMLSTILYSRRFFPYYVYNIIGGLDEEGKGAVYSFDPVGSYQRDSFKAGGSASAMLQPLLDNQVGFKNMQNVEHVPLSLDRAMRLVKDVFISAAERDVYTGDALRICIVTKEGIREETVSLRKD
UniProt P15090: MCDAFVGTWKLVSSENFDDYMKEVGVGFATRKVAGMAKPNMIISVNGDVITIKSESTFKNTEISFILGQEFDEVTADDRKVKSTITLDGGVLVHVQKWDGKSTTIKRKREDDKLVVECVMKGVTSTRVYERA
UniProt P60953: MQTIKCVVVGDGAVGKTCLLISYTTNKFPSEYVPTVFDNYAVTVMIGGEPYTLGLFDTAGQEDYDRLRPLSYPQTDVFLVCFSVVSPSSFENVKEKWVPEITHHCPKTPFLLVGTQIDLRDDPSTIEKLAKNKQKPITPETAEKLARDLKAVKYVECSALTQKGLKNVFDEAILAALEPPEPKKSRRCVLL
UniProt P13010: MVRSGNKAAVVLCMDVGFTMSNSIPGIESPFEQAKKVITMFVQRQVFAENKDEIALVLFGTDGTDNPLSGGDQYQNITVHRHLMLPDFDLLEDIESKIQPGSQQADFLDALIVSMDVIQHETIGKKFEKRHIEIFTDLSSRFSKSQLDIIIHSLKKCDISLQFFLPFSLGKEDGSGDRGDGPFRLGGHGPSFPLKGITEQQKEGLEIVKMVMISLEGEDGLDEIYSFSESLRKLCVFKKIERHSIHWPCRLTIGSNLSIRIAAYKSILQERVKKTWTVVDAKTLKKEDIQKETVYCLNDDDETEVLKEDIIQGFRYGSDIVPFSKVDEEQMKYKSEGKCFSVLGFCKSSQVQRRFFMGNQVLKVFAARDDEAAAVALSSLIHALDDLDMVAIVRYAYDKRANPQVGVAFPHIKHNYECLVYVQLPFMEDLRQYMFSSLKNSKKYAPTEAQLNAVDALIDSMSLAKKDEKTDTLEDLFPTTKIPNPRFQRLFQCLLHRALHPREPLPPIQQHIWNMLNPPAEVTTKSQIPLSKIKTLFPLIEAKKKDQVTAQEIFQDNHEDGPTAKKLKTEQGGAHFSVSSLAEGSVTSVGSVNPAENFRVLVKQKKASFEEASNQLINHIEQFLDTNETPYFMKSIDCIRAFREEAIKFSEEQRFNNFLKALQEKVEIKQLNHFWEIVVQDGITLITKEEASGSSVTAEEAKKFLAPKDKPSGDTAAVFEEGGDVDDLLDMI

Molecular target: T1, HA::AdipoR2 (human) (UniProt Q86V24)
T1 sequence: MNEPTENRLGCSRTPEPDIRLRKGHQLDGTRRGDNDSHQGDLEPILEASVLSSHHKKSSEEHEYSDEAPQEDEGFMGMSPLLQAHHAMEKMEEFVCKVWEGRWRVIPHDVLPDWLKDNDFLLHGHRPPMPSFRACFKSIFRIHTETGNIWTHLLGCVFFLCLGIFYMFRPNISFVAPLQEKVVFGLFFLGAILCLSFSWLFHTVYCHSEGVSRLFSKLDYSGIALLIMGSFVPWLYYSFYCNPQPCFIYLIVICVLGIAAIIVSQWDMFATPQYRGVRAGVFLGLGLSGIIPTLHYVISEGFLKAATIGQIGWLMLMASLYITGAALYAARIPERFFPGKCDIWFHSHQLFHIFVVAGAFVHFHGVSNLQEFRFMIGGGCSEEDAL
Assay: affinity purification with mass spectrometry; anti-HA immunoprecipitation (rabbit mAb C29F4 + protein A-agarose, 3 h) from lysates of HEK293 cells stably expressing HA-tagged AdipoR2; 25 mM Tris pH 7.5, 300 mM NaCl, 0.1% NP-40; eluted with 0.2 M glycine pH 2.5; 4 IPs; control: cells without HA-tagged protein

Molecule: Protein-L-isoaspartate O-methyltransferase domain-containing protein 1 (from UniProt Q96MG8 1-357)
binding: binds

Molecule: Mammaglobin-A (from UniProt Q13296 19-93)
binding: binds

Molecule: Reticulon-1 (from UniProt Q16799 1-776)
binding: binds

Molecule: BAG family molecular chaperone regulator 2 (from UniProt O95816 1-211)
binding: binds

Molecule: Proteasome subunit beta type 7 (from UniProt Q99436)
binding: binds

Molecule: Heterogeneous nuclear ribonucleoprotein C-like 2 (from UniProt B2RXH8 1-293)
binding: binds

Molecule: Small nuclear ribonucleoprotein Sm D2 (from UniProt P62316 1-118)
binding: binds

Molecule: Proteasome subunit alpha type 6 (from UniProt P60900 1-246)
binding: binds

Molecule: High mobility group protein HMGI-C (from UniProt P52926 1-109)
binding: binds

Molecule: Dynein light chain 1, cytoplasmic (from UniProt P63167 1-89)
binding: binds

Molecule: Ras-related protein Rap-1b (from UniProt P61224 1-184)
binding: binds

Molecule: Guanine nucleotide-binding protein G(t) subunit alpha-1 (from UniProt P11488 1-350)
binding: binds

B1: Glycerophosphodiester phosphodiesterase domain-containing protein 3 (protein, UniProt Q7L5L3 1-318)
chain: MSLLLYYALPALGSYAMLSIFFLRRPHLLHTPRAPTFRIRLGAHRGGSGELLENTMEAMENSMAQRSDLLELDCQLTRDRVVVVSHDENLCRQSGLNRDVGSLDFEDLPLYKEKLEVYFSPGHFAHGSDRRMVRLEDLFQRFPRTPMSVEIKGKNEELIREIAGLVRRYDRNEITIWASEKSSVMKKCKAANPEMPLSFTISRGFWVLLSYYLGLLPFIPIPEKFFFCFLPNIINRTYFPFSCSCLNQLLAVVSKWLIMRKSLIRHLEERGVQVVFWCLNEESDFEAAFSVGATGVITDYPTALRHYLDNHGPAARTS
binding: binds

B2: Fructose-bisphosphate aldolase C (protein, UniProt P09972 1-364)
chain: MPHSYPALSAEQKKELSDIALRIVAPGKGILAADESVGSMAKRLSQIGVENTEENRRLYRQVLFSADDRVKKCIGGVIFFHETLYQKDDNGVPFVRTIQDKGIVVGIKVDKGVVPLAGTDGETTTQGLDGLSERCAQYKKDGADFAKWRCVLKISERTPSALAILENANVLARYASICQQNGIVPIVEPEILPDGDHDLKRCQYVTEKVLAAVYKALSDHHVYLEGTLLKPNMVTPGHACPIKYTPEEIAMATVTALRRTVPPAVPGVTFLSGGQSEEEASFNLNAINRCPLPRPWALTFSYGRALQASALNAWRGQRDNAGAATEEFIKRAEVNGLAAQGKYEGSGEDGGAAAQSLYIANHAY
binding: binds

Second part, the molecule after the results:

binding: binds
Molecule: Proactivator polypeptide-like 1 (human (endogenous in HEK293))

binding: binds
Molecule: Heat shock protein 105 kDa (from UniProt Q92598 1-858)

binding: binds
Molecule: Protein CASC3 (from UniProt O15234 1-703)

binding: binds
Molecule: Proteasome subunit beta type 1 (from UniProt P20618)

binding: binds
Molecule: Fatty acid–binding protein, adipocyte (from UniProt P15090 1-132)

binding: binds
Molecule: Cell division control protein 42 homolog (from UniProt P60953 1-191)

binding: binds
Molecule: Troponin I, cardiac muscle (from UniProt P19429 1-210)

binding: binds
Molecule: X-ray repair cross-complementing protein 5 (from UniProt P13010 1-732)
